These are yes or no findings as the source states them, for the method shown. Binding seen in cells or lysates may run through a third protein. Some binding calls cover weakened binding; strength is not graded here. For part of these data: Tags and fused reporters may be left off the sequences shown. Values belong to the molecule of their own block, whether it stands above or below them.
Legend:
[1] = molecular target: T1, Flag-U3-55k (human) (UniProt O43818); assay: co-IP; lysates from HEK293T cells co-expressing Flag-U3-55k and GFP-tagged sirtuins, anti-Flag antibody, western blot with anti-GFP; lysis in 20 mM Tris-HCl pH 7.9, 0.1% NP-40, 150 mM KCl, 5 mM MgCl2
T1 sequence: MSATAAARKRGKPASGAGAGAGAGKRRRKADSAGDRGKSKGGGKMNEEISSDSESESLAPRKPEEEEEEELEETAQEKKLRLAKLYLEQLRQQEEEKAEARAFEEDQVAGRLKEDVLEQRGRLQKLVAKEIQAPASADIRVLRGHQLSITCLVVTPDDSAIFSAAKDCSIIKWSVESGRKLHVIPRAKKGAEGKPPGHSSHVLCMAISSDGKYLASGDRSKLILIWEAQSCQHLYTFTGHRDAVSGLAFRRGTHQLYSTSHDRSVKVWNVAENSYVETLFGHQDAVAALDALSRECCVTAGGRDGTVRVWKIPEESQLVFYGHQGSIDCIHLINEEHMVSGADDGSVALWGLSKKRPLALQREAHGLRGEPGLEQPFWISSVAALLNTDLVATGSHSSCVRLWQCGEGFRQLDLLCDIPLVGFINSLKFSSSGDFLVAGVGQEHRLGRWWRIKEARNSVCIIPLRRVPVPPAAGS

By UniProt entry, the sequences of proteins in these tests, tags left out.
UniProt Q9NRC8: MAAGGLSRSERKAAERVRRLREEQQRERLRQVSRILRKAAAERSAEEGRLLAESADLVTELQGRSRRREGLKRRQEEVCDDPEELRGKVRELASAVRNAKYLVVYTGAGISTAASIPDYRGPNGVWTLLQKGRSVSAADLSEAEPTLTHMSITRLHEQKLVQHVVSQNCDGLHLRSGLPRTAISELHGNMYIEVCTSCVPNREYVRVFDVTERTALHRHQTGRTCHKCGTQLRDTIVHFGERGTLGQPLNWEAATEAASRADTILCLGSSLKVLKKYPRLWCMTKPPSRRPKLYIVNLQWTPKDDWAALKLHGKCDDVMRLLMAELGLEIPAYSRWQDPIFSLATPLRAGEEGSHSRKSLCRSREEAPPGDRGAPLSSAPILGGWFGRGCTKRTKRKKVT
UniProt Q8N6T7: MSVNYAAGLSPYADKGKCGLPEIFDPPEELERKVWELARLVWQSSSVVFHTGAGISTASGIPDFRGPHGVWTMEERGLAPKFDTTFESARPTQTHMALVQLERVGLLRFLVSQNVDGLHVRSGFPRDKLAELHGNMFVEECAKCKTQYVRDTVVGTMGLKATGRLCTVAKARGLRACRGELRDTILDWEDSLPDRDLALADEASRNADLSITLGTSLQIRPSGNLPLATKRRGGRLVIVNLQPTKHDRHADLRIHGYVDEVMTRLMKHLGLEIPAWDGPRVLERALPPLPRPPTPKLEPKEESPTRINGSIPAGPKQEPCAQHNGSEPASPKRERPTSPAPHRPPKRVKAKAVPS

[2] = molecular target: endogenous SIRT7 (UniProt Q9NRC8); assay: co-IP; endogenous SIRT7 immunoprecipitated with 5 ug anti-SIRT7 antibodies, co-precipitated endogenous U3-55k detected with anti-U3-55k antibodies

binding [1]: binds
Molecule: GFP-SIRT7 (green fluorescent protein-human sirtuin 7) (from UniProt Q9NRC8 1-400) (enzyme)

binding [1]: no binding
Molecule: GFP-tagged SIRT6 (from UniProt Q8N6T7 1-355) (enzyme)

binding [2]: binds
B1: endogenous U3-55k (protein, UniProt O43818 1-475)
chain: T1 sequence

— paper PMC4754350
